{"source": "patent US8163697B2", "about": "“Selective R-cadherin antagonists and methods” (The Scripps Research Institute, priority 2003, dated 2012)", "key": {"R-cadherin": {"molecular_target": "T1, R-cadherin (Mus musculus, UniProt P39038)", "T1 construct": "expressed in transfected cells", "T1 sequence (P39038 167-913)": "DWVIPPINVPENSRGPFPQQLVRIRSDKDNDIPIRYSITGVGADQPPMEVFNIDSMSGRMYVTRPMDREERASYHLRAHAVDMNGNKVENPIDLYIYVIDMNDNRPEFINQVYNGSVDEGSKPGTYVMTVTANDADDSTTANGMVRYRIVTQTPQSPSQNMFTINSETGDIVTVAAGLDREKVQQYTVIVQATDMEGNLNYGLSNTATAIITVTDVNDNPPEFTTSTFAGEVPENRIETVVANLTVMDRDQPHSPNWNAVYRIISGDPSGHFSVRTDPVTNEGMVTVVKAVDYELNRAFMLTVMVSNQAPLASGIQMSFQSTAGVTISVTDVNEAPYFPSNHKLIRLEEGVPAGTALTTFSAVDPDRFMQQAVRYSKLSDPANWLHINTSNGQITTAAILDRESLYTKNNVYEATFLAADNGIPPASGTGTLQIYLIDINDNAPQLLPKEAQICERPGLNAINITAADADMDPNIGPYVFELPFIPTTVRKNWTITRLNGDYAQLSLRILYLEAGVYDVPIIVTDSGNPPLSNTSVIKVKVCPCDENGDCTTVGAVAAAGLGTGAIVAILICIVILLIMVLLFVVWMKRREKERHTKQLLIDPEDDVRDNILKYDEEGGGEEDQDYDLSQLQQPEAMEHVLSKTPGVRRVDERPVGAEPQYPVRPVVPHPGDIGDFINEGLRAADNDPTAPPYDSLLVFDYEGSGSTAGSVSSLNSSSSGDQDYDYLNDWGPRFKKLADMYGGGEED", "assay": "Aggregation assay, R-cadherin transfected L-cells", "type": "cell-based", "excerpt": "(§1) Mouse R-cadherin and N-cadherin plasmids were generous gifts from Dr. Masatoshi Takeichi (Kyoto University, Japan). The plasmids were sub-cloned into pDsRed2 N1 vectors (Clontech) to encode for fusion proteins with Red Fluorescent Protein (RFP) attached to the C-terminal end of the cadherin molecules. L-cells (mouse fibroblast L929 cells, ATCC #CRL-2148) were stably transfected with either R or N-cadherin pDsRed2 N1 using the Calcium Phosphate Transfection System (Life Technologies) according to the manufacturer's protocol. After screening by growth in media supplemented with Geneticin (700 μg/mL G418 Geneticin, Gibco BRL), positive clones were selected. […]\n(§2) L-Cells were grown to near confluency followed by trypsinization with 0.01% trypsin+5 mM CaCl2 and no EDTA (TC) or 0.01% trypsin with 0.1 mM EDTA and no calcium (TE). […] Particles were counted on a hemocytometer using the sum of 8 separate 20 μL counts/well, before (N0) and after (Nt) incubation. […]\n(§3) Mouse fibroblast cells (lineage L929), commonly referred to as L-cells, were chosen because they are known to contain no endogenous cadherin expression. […] Immunoblot analysis detected high levels of R-cadherin and no N-cadherin expression in R-cadherin clone 8 (R-cad8), while high levels of N-cadherin expression and no R-cadherin expression was found in N-cadherin clone 3 (N-cad3), as shown in FIG. 7. […]"}, "[1]": {"tested_on": "mouse retinal vascularization", "assay": "Retinal vascularization after intravitreal injection of peptides", "type": "in vivo", "details": "for superficial retinal vascular formation: intravitreal injection at P2, examined at P5; for deep retinal vascular plexus formation: intravitreal injection at P7, examined at P11"}, "N-cadherin": {"molecular_target": "T2, N-cadherin (Mus musculus, UniProt P15116)", "T2 construct": "expressed in transfected cells", "T2 sequence (P15116 160-906)": "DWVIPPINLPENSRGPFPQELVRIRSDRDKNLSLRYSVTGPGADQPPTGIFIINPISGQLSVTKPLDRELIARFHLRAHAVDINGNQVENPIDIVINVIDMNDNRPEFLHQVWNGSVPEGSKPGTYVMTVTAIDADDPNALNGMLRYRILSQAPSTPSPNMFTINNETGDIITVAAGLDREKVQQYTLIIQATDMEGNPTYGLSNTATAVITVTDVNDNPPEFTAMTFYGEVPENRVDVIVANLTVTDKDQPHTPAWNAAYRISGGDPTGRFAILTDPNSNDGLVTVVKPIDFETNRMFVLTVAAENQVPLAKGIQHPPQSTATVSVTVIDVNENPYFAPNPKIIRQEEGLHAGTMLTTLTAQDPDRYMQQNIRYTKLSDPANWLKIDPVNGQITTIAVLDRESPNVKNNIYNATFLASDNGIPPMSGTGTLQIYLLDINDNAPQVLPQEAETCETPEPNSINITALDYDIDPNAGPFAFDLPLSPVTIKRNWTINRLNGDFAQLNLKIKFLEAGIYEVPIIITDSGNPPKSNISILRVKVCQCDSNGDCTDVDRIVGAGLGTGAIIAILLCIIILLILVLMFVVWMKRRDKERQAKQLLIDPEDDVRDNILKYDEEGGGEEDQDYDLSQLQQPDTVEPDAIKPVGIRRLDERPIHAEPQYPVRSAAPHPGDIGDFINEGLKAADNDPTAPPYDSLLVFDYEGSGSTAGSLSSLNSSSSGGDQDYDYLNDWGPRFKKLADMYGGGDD", "assay": "Aggregation assay, N-cadherin transfected L-cells", "type": "cell-based", "details": "N-cadherin expressing L-cells", "excerpt": "as §1, §2, §3"}}, "note": "At least one peptide structure holds a part that was inferred or is arguable (an end, a ring closure or a residue). Where a SMILES comes first, the peptide text is derived from it. Bridges are numbered along the chain shown (N, C = ends).", "data": [{"compound": "CC[C@H](C)[C@H](NC(C)=O)C(=O)N[C@@H](CC(=O)O)C(=O)N[C@@H](CO)C(=O)N[C@@H](CCSC)C(=O)N[C@@H](CO)C(=O)NCC(=O)N[C@@H](CCCNC(=N)N)C(N)=O", "note": "[IDSMSGR] (Ac-IDSMSGR-NH2; N-terminus and C-terminus assumed)", "values": [{"measurement": "effectiveness relative to cyclic IDS (times lower)", "setting": "R-cadherin; R-cadherin mediated adhesion, ratio of IC50", "result": "about 3 times"}]}, {"compound": "CC(=O)N[C@H]1CSSC[C@@H](C(N)=O)NC(=O)[C@H](C(C)C)NC(=O)[C@H](C)NC(=O)[C@H](Cc2c[nH]cn2)NC1=O", "note": "[cyclic HAV, CHAVC]", "values": [{"measurement": "superficial retinal vascular formation", "setting": "[1]", "result": "vascular formation was disrupted"}]}, {"compound": "CC[C@H](C)[C@@H]1NC(=O)[C@@H](NC(C)=O)CSSC[C@@H](C(N)=O)NC(=O)[C@H](CO)NC(=O)[C@H](CC(=O)O)NC1=O", "note": "[cyclic IDS, cyclic CIDSC] (Ac-CIDSC-NH2; disulfide 1-5; N-terminus and C-terminus assumed)", "values": [{"measurement": "effect on N-cadherin mediated aggregation", "setting": "N-cadherin", "result": "little effect"}, {"measurement": "superficial retinal vascular formation", "setting": "[1]", "result": "vascular formation was disrupted"}, {"measurement": "deep retinal vascular plexus formation", "setting": "[1]", "result": "numerous vascular sprouts that had migrated past the normal deep vascular plexus and into the avascular photoreceptor layer"}]}, {"compound": "CC[C@H](C)[C@@H]1NC(=O)[C@@H](NC(C)=O)CSSC[C@@H](C(N)=O)NC(=O)[C@@H]2CCCN2C(=O)[C@H](CC(N)=O)NC1=O", "note": "[cyclic INP, cyclic CINPC] (Ac-CINPC-NH2; disulfide 1-5)", "values": [{"measurement": "effect on R-cadherin mediated aggregation", "setting": "R-cadherin; R-cadherin expressing L-cells", "result": "little effect"}, {"measurement": "superficial retinal vascular formation", "setting": "[1]", "result": "relatively normal"}, {"measurement": "deep retinal vascular plexus formation", "setting": "[1]", "result": "formed normally"}]}]}
